Read-outs that look alike come from different tables or passages of the source. No constants are given. Whether binding was seen depends on the method and setting. In cells and extracts the contact can be indirect. Some entries that bind do so weakly or less than the wild type. For part of these data: Sequences can lack the tags named with a protein. Values belong to the molecule of their own block, whether it stands above or below them.
Experiments:
[1] = target: T1, RFXANK-myc-FLAG (human) (UniProt O14593); assay: co-IP; HEK293T lysates after transfection; capture on anti-RFXANK-coated Dynabeads Protein G overnight at 4 °C; lysis buffer 30 mM Tris-HCl pH 7.5, 120 mM NaCl, 1% glycerol, 0.5% NP-40; Western blot
T1 sequence: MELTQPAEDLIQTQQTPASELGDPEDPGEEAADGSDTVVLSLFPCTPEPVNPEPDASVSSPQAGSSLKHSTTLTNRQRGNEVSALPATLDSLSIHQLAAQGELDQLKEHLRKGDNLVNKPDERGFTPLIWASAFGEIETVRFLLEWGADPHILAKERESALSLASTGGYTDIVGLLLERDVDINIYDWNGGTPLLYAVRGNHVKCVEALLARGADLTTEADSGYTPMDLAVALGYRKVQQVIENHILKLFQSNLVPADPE

The chains behind the UniProt entries cited, without tags or fusion partners.
UniProt Q14790: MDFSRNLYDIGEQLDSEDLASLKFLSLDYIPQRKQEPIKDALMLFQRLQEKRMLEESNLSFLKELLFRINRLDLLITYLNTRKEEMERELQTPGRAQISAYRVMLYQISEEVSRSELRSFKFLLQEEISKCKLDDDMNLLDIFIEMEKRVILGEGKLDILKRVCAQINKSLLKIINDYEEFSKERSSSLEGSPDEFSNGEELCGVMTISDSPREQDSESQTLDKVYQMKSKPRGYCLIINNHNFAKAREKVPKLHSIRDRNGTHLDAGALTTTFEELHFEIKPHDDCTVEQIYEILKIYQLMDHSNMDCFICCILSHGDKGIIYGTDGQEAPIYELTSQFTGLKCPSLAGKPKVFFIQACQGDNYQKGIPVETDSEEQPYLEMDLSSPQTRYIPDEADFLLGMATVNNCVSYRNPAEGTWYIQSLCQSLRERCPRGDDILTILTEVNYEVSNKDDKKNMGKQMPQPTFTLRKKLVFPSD

[2] = target: T1, RFXANK-myc-FLAG (human); assay: as above; remark: listed apart in the source
[3] = target: T2, endogenous RFXANK (OCI-AML2) (human (endogenous in OCI-AML2)) (UniProt O14593); assay: co-IP; endogenous proteins of OCI-AML2 cells fractionated with 0.01% digitonin (cytosolic and nuclear fractions); capture with anti-RFXANK antibody; Western blot
T2 sequence: T1 sequence

- binding [1]: no binding
Molecule: caspase-8 (HEK293T) (from UniProt Q14790 1-479) (enzyme)

- binding [2]: binds weakly
B1: endogenous full-length caspase-2 (HEK293T) (enzyme, UniProt P42575 1-452)
chain: MAAPSAGSWSTFQHKELMAADRGRRILGVCGMHPHHQETLKKNRVVLAKQLLLSELLEHLLEKDIITLEMRELIQAKVGSFSQNVELLNLLPKRGPQAFDAFCEALRETKQGHLEDMLLTTLSGLQHVLPPLSCDYDLSLPFPVCESCPLYKKLRLSTDTVEHSLDNKDGPVCLQVKPCTPEFYQTHFQLAYRLQSRPRGLALVLSNVHFTGEKELEFRSGGDVDHSTLVTLFKLLGYDVHVLCDQTAQEMQEKLQNFAQLPAHRVTDSCIVALLSHGVEGAIYGVDGKLLQLQEVFQLFDNANCPSLQNKPKMFFIQACRGDETDRGVDQQDGKNHAGSPGCEESDAGKEKLPKMRLPTRSDMICGYACLKGTAAMRNTKRGSWYIEALAQVFSERACDMHVADMLVKVNALIKDREGYAPGTEFHRCKEMSEYCSTLCRHLYLFPGHPPT

- binding [3]: binds
B2: endogenous caspase-2 (OCI-AML2) (enzyme, UniProt P42575 1-452)
chain: B1 chain
